Source: PMC4514846
Where two headings read alike, the source gives them in different places. Results are given in words; binding and its absence hold for the method and conditions named. Some binding calls cover weakened binding; strength is not graded here. Sequences can lack the tags named with a protein.

Protein sequences, listed by entry. Tags and fused reporters are not part of them. Lines headed by an entry give the natural chain unless they say otherwise; changes in a name come on top.
UniProt Q01939: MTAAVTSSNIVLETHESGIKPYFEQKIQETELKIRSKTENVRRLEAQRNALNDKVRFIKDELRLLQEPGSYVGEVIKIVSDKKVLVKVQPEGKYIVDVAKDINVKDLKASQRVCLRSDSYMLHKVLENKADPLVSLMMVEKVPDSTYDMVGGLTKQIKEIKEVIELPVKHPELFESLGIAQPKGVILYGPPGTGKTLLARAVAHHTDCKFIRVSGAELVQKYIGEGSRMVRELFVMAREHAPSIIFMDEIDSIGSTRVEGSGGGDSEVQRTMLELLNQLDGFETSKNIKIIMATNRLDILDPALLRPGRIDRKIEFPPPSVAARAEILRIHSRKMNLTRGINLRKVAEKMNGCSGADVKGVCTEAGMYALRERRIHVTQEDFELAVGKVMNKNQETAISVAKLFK

T1: FLAG-Rpt1 (Saccharomyces cerevisiae) (UniProt P33299)
T1 sequence: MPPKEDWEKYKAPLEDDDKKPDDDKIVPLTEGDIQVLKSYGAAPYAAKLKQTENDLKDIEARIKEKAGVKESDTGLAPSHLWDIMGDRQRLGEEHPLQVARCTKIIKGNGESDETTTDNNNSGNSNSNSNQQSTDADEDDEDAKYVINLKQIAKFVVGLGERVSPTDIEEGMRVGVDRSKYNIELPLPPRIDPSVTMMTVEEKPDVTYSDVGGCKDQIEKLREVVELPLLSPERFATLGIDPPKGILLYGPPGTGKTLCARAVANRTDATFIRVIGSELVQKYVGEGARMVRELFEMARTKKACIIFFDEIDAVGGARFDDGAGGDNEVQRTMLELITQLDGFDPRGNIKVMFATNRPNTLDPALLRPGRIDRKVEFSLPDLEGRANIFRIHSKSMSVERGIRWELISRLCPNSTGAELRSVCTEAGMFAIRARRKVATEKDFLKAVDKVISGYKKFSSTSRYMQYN

T2: His6-Rpt3 (Saccharomyces cerevisiae) (UniProt P33298)
T2 sequence: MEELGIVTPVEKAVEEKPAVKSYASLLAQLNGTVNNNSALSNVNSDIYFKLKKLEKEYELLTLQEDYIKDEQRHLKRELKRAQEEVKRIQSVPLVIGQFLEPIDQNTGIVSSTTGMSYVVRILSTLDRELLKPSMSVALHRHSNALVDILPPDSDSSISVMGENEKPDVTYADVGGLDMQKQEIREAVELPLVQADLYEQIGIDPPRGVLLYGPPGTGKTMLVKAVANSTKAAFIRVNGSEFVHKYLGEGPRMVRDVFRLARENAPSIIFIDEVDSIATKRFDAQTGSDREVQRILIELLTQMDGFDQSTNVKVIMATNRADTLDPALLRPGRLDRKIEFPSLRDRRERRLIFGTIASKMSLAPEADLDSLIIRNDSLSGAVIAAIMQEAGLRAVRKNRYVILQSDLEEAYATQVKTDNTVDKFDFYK


Tests used:
Test in all cases: tandem affinity purification; base components (Rpt1-6, Rpn1, Rpn2, Rpn13) and chaperones (Nas2, Nas6, Hsm3, Rpn14) co-expressed in E. coli BL21(DE3); lysate on His-Select spin column (His6-Rpt3), eluted with 150 mM imidazole, then anti-FLAG M2 beads (FLAG-Rpt1), eluted with 3x FLAG peptide; TAP buffer 25 mM HEPES pH 7.6, 100 mM NaCl, 100 mM KCl, 10% glycerol, 10 mM MgCl2, 0.5 mM EDTA, 1 mM ATP; eluate read by western blot (anti-FLAG, anti-His) and Oriole stain
[1] = target: T1, FLAG-Rpt1 (Saccharomyces cerevisiae)
[2] = target: T2, His6-Rpt3 (Saccharomyces cerevisiae)
[3] = target: T1, FLAG-Rpt1 (Saccharomyces cerevisiae); remark: listed apart in the source

| binding [1] | binding [2] | binding [3] | Molecule |
| --- | --- | --- | --- |
| binds |  |  | Rpt6 (from UniProt Q01939 1-405) |
| binds weakly |  |  | Rpt6Δ50 (from UniProt Q01939 51-405) (domain or fragment) |
|  | binds |  | Rpt5Δ40 (domain or fragment, UniProt P33297 41-434) IRIFRSELQRLSHENNVMLEKIKDNKEKIKNNRQLPYLVANVVEVMDMNEIEDKENSESTTQGGNVNLDNTAVGKAAVVKTSSRQTVFLPMVGLVDPDKLKPNDLVGVNKDSYLILDTLPSEFDSRVKAMEVDEKPTETYSDVGGLDKQIEELVEAIVLPMKRADKFKDMGIRAPKGALMYGPPGTGKTLLARACAAQTNATFLKLAAPQLVQMYIGEGAKLVRDAFALAKEKAPTIIFIDELDAIGTKRFDSEKSGDREVQRTMLELLNQLDGFSSDDRVKVLAATNRVDVLDPALLRSGRLDRKIEFPLPSEDSRAQILQIHSRKMTTDDDINWQELARSTDEFNGAQLKAVTVEAGMIALRNGQSSVKHEDFVEGISEVQARKSKSVSFYA |
|  |  | binds | Rpt4Δ65 (domain or fragment, UniProt P53549 66-437) EHRRYDDQLKQRRQNIRDLEKLYDKTENDIKALQSIGQLIGEVMKELSEEKYIVKASSGPRYIVGVRNSVDRSKLKKGVRVTLDITTLTIMRILPRETDPLVYNMTSFEQGEITFDGIGGLTEQIRELREVIELPLKNPEIFQRVGIKPPKGVLLYGPPGTGKTLLAKAVAATIGANFIFSPASGIVDKYIGESARIIREMFAYAKEHEPCIIFMDEVDAIGGRRFSEGTSADREIQRTLMELLTQMDGFDNLGQTKIIMATNRPDTLDPALLRPGRLDRKVEIPLPNEAGRLEIFKIHTAKVKKTGEFDFEAAVKMSDGFNGADIRNCATEAGFFAIRDDRDHINPDDLMKAVRKVAEVKKLEGTIEYQKL |
|  | binds | binds | Rpn2 (protein, UniProt P32565 1-945) MSLTTAAPLLALLRENQDSVKTYALESINNVVDQLWSEISNELPDIEALYDDDTFSDREMAALIASKVYYNLGEYESAVKYALAAKDRFDIDEKSQFVETIVSKSIEMYVQEASKQYTKDEQFYTKDIIDPKLTSIFERMIEKCLKASELKLALGIALEGYRLDIIESALKSKLDQDSTSENVKIINYLLTLAITTVTNSKFRSSILRKSFDFLMNMPNCDYLTLNKVVVNLNDAGLALQLFKKLKEENDEGLSAQIAFDLVSSASQQLLEILVTELTAQGYDPALLNILSGLPTCDYYNTFLLNNKNIDIGLLNKSKSSLDGKFSLFHTAVSVANGFMHAGTTDNSFIKANLPWLGKAQNWAKFTATASLGVIHKGNLLEGKKVMAPYLPGSRASSRFIKGGSLYGLGLIYAGFGRDTTDYLKNIIVENSGTSGDEDVDVLLHGASLGIGLAAMGSANIEVYEALKEVLYNDSATSGEAAALGMGLCMLGTGKPEAIHDMFTYSQETQHGNITRGLAVGLALINYGRQELADDLITKMLASDESLLRYGGAFTIALAYAGTGNNSAVKRLLHVAVSDSNDDVRRAAVIALGFVLLRDYTTVPRIVQLLSKSHNAHVRCGTAFALGIACAGKGLQSAIDVLDPLTKDPVDFVRQAAMIALSMILIQQTEKLNPQVADINKNFLSVITNKHQEGLAKFGACVAQGIMNAGGRNVTIQLENADTGTLDTKSVVGLVMFSQFWYWFPLAHFLSLSFTPTTVIGIRGSDQAIPKFQMNCYAKEDAFSYPRMYEEASGKEVEKVATAVLSTTARAKARAKKTKKEKGPNEEEKKKEHEEKEKERETNKKGIKETKENDEEFYKNKYSSKPYKVDNMTRILPQQSRYISFIKDDRFVPVRKFKGNNGVVVLRDREPKEPVALIETVRQMKDVNAPLPTPFKVDDNVDFPSA |
